Test results published in PMC7010797.
These are yes or no findings as the source states them, for the method shown. Binding can be weak; no strength is given.

Tests used:
[1] = biological target: MmCpn•Cys-0, cysteine-less variant of the Methanococcus maripaludis group II chaperonin (Methanococcus maripaludis); experiment: native gel or EMSA; non-denaturing 1% agarose gel (1 mM MgCl2, 80 mM MOPS pH 7.4); 0.25 uM MmCpn mixed with 1 uM denatured Cy3-rhodanese in ATPase buffer, 10 min on ice, aggregates spun out; then no ATP, 1 mM ATP or ATP-AlFx for 1 h at 37 C; Cy3 fluorescence co-migrating with the chaperonin band (Sypro Ruby); both purified
[2] = biological target: wild type group II chaperonin from Methanococcus maripaludis (MmCpn WT) (Methanococcus maripaludis); experiment: as above

binding [1]: binds
binding [2]: binds
B1: denatured Cy3-maleimide labeled bovine rhodanese (enzyme, UniProt P00586 1-297)
chain: MVHQVLYRALVSTKWLAESVRAGKVGPGLRVLDASWYSPGTREARKEYLERHVPGASFFDIEECRDKASPYEVMLPSEAGFADYVGSLGISNDTHVVVYDGDDLGSFYAPRVWWMFRVFGHRTVSVLNGGFRNWLKEGHPVTSEPSRPEPAIFKATLNRSLLKTYEQVLENLESKRFQLVDSRAQGRYLGTQPEPDAVGLDSGHIRGSVNMPFMNFLTEDGFEKSPEELRAMFEAKKVDLTKPLIATCRKGVTACHIALAAYLCGKPDVAIYDGSWFEWFHRAPPETWVSQGKGGKA
modifications: Cy3-maleimide label (positions not stated)
